Whole data set: some 1,700 compounds, median “T2 sensor activation Q score (MG/GFP ratio z-score vs DMSO controls)” near 0.3, cut for the highest 2% near 1.9. The list shows a part of the results.
Test system: ppGalNAc-T2 sensor
Experiment: T2 sensor activation Q score (MG/GFP ratio z-score vs DMSO controls) (SD units); higher = more sensor activation (inhibition of ppGalNAc-T2 glycosylation)
Conditions: HEK293 sensor cells; 10 µM; 6 h
Experimental: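 Cells were treated with compound at 10 uM for 6 h, then MG/GFP ratio was read by flow cytometry (10,000 cells per well, duplicate wells). Q = (R - R_neg)/SD_neg relative to DMSO vehicle controls; the signal rises when the glycosyltransferase is inhibited.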

SMILES | T2 sensor activation Q score
CN1CCN(c2nc(N)c(Br)c(Cl)n2)CC1 | 0.8
O=[As](O)(O)c1ccc(N=Nc2ccc(O)cc2)cc1 | -1.75
O=C1CCCN1CC#CCN1CCCC1 | -0.3
CC(C)(C)n1cc(C(=O)c2ccccc2)cc1-c1ccccc1 | 0.8
Cc1ccc2c(c1)Oc1ccccc1N=C2 | 1.2
CCc1cc2c(cc1-c1csc(C/C(N)=N/O)n1)C(C)(C)CCC2(C)C | 1.35
CC1(C)NC(=S)C(C)(C)N1N=O | -1.5
COc1cc(OC)cc(C2(C#N)CCN(C)CC2)c1 | 1.9
O=C1NC(=O)C(=Cc2ccc3ccccc3c2)C(=O)N1 | 0.7
Cc1n[nH]c2c([N+](=O)[O-])c(=O)[nH]c(=O)n12 | 0.4
CC(CC(C#N)(c1ccccc1)c1ccccc1)N1CCCCC1 (centres undefined) | 1.3
Cc1ccccc1NC(=O)NCCN1CC1 | 0.8
O=C(OC1CCCCC1)c1ccccc1C(=O)OC1CCCCC1 | -2.9
Cn1cnc([N+](=O)[O-])c1Sc1n[nH]c(N)n1 | 1.8
CCC(N)Cc1c[nH]c2ccccc12 (centres undefined) | 1.2
CN1CCC(c2c[nH]c3ccccc23)C1 (centres undefined) | 0.5
O=C1CCC2(O)[C@@H]3Cc4ccc(O)c5c4[C@]2(CCN3Cc2ccoc2)C1O5 (some centres undefined) | 0.3
CC1=CC(O)C(O)C2(C)C1CC1OC(=O)C(O)C3C(C)C(O)C4(O)OCC13C42 (centres undefined) | 0.75
COc1ccccc1[As](=O)(O)CC(O)COc1ccc(Cl)cc1Cl (centres undefined) | 0.75
Cc1c(N)nc([C@H](CC(N)=O)NC[C@H](N)C(N)=O)nc1C(=O)N[C@H](C(=O)N[C@H](C)[C@@H](O)[C@H](C)C(=O)N[C@H](C(=O)NCCc1nc(-c2nc(C(=O)NCCC[S+](C)C)cs2)cs1)[C@@H](C)O)[C@@H](OC1OC(CO)C(O)C(O)C1OC1OC(CO)C(O)C(OC(N)=O)C1O)c1cnc[nH]1 (some centres undefined) | -0.45
ClC1=C(Cl)C(Cl)=C(Cl)C1=C/C=C/c1ccccc1 | -1.8
CC[C@@]1(O)C(=O)OCc2c1cc1n(c2=O)Cc2cc3c(NC(=O)CN)cccc3nc2-1 | 0.25

SMILES | T2 sensor activation Q score
Cc1c2ccncc2c(C)c2c1[nH]c1ccccc12 | -5.2
O=P1(NCCCl)OCCCN1CCCl (centres undefined) | -2.6
Oc1cccc2nc3ccccc3nc12 | -0.15
N#CC(C#N)=Cc1ccc(C=C(C#N)C#N)cc1 | 0.9
O=C(NCCCN1CC1)Nc1cccc2ccccc12 | 1.35
COc1ccc2c(c1O)[C@]13CCN(C)[C@H](C2)[C@@H]1CCC(=O)C3 | -0.1
c1cc(C2N3CCCN2CC3)ccn1 (centres undefined) | -0.3
C=CCNC(=S)Nc1ccc(OC(=O)Nc2ccc(Cl)c(Cl)c2)cc1 | -0.85
CC(C)CC(NC=O)C(=O)O.COc1cc2c(cc1OC)C13CCN4CC5=CCOC6CC(=O)N2C1C6C5CC43 (centres undefined) | 1.3
COc1ccc2c(c1)C13CCN(C)C(C2)C1CCC1(C3)OCCO1 (centres undefined) | 2
CN1C(=O)NC(=O)C(N=Nc2ccc(Cl)cc2)C1=O (centres undefined) | 1.05
CC(=O)Nc1cccc([As](=O)(c2cccc(NC(C)=O)c2)c2cccc(NC(C)=O)c2)c1 | 1.05
CC1Oc2cc3c(-c4c(O)cc(O)c5c(O)c6c(cc45)OC(C)C(C)C6=O)c(O)cc(O)c3c(O)c2C(=O)C1C (centres undefined) | 0.15
C=Cc1cc(OC)c2c(c1)c(=O)oc1c2cc(OC)c2c(O)ccc(C3OC(C)C(O)C(C)(O)C3O)c21 (centres undefined) | -0.15
O=C1NC(=O)C(=Cc2csc3ccccc23)C(=O)N1 | -0.05
N[C@@H](Cc1ccc(N(CCCl)CCCl)cc1)C(=O)O | -1.4
CCC1CCC(C)N(N=O)C1 (centres undefined) | 0.1
CSc1nc(C)c(Br)c(N2CC2)n1 | -1.05
NC(=O)c1ccc(C(=O)Nc2ccc([As](=O)(O)O)cc2)cc1 | -0.4
CC12CCC3c4ccc(OC(=O)N(CCCl)CCCl)cc4CCC3C1CCC2O (centres undefined) | -0.35
CCN1CC2C3CCC(C)(O3)C2C1 (centres undefined) | 1.85
C[C@H]1CC[C@H]2NCCN[C@H]2C1 | 0.55

SMILES | T2 sensor activation Q score
CNC(=O)Oc1ccc(N(C)C)cc1C(C)C | 0.25
c1ccc2c(c1)Sc1ccccc1N2CC1CN2CCC1CC2 (centres undefined) | -2.5
O=[N+]([O-])c1cc(-c2ccc([As](=O)(O)O)cc2)ccc1[As](=O)(O)O | 0.65
C/C=C(/C)C(=O)O[C@H]1CCN2CC=C(COC(=O)[C@@](O)([C@H](C)OC)C(C)(C)O)[C@H]12 | 0.2
CC12CCC3C(CC=C4CC(O)CCC43C)C1C/C(=C\N1CCCC1)C2=O (centres undefined) | 0.15
COc1cccc2c1C(=O)c1c(O)c3c(c(O)c1C2=O)CC(O)(C(C)=NO)CC3OC1CC(N)C(O)C(C)O1 (centres undefined) | -1.85
CC(Cc1ccccc1)NC(N)=O (centres undefined) | 1.8
Cc1ncc([N+](=O)[O-])n1CCOC(N)=O | -0.85
CCC1CN1P1(=O)OCC(C)([N+](=O)[O-])CO1 (centres undefined) | 0.85
COC[C@H]1OC(=O)c2coc3c2[C@@]1(C)C1=C(C3=O)[C@@H]2CCC(=O)[C@@]2(C)C[C@H]1OC(C)=O | 2.1
COC(=O)c1nc(-c2ccc3c(n2)C(=O)C(N)=C(OC)C3=O)c(N)c(-c2ccc(OC)c(OC)c2O)c1C | 0.4
OCC1CN1C1CCCCC1 (centres undefined) | 2.1
Cc1ccc(-n2c(O)c(C=N)c(=O)n(-c3ccc(C)cc3)c2=O)cc1 | 1.05
O=C(O)CCCc1ccc(N(CCCl)CCCl)cc1 | 0.5
c1ccc2nc(OCCN3CC3)ccc2c1 | 1.15
Cc1ccccc1-n1c(C=Cc2ccccn2)nc2ccccc2c1=O | -1
C=CCCC1(C2=CCCCC2)C(=O)NC(=O)NC1=O | -1.5
COc1ccc(C2=CC(c3ccc(OC)c(OC)c3)c3c(c4ccccc4oc3=O)O2)cc1OC (centres undefined) | -0.05
CC(C)OC1CCCC(O)C1CC(=O)O (centres undefined) | -1.4
CNC(=O)Oc1c(C)[nH]ccc1=O | 1.2
Cn1cnc([N+](=O)[O-])c1N=C(N)N | 2.2
Cc1ccc(C=C2C(Cl)=C(Cl)C(Cl)=C2Cl)cc1 | -0.5

SMILES | T2 sensor activation Q score
O=S(=O)(F)c1ccc2nc(-c3cccc(Sc4ccccc4)c3)cc(Cl)c2c1 | -0.1
COc1c(OP2(=S)OCC(C)(C)CO2)cnn(C2CCCCC2)c1=O | -1.15
CC(=O)OC1CCC2(C)C(CCC3C2CC(=O)C2(C)C3CC(N3CC3)C2C(C)=O)C1 (centres undefined) | 0.5
N.N.[Cl][Pt][Cl] | -1.1
O=P(Oc1ccccc1)(Oc1ccccc1)c1ccccc1 | -3.1
CC1=C(O)C(=O)C=C2C1=CC=C1[C@@]2(C)CC[C@@]2(C)[C@@H]3C[C@](C)(C(=O)O)CC[C@]3(C)CC[C@]12C | -2
O=c1[nH]cc(N(CCCl)CCCl)c(=O)[nH]1 | -0.65
CN1CCc2cc3c(cc2C1)OCO3 | -0.3
CC1C(C)N1CC(O)Cn1ccnc1[N+](=O)[O-] (centres undefined) | 1.3
CC[C@@]1(O)C(=O)OCc2c1cc1n(c2=O)Cc2cc3ccccc3nc2-1 | 0.65
CN1CCN(c2ccc([N+](=O)[O-])c3no[n+]([O-])c23)CC1 | 0.1
CN1C2CCC1[C@@H](COC(=O)c1ccccc1)[C@@H](O)C2 (some centres undefined) | -1.45
O=C1N(c2nncs2)CCN1[N+](=O)[O-] | 1.2
N=Cc1c(O)n(-c2ccccc2)c(=O)n(-c2ccccc2)c1=O | 1.45
CSc1nc(N)c(N=Nc2ccc([As](=O)(O)O)cc2)c(=O)[nH]1 | 0.7
CN1CCCC1c1ccc(=O)[nH]c1 (centres undefined) | -0.5
CCCC(=O)N(C)C1=Nc2ccc(Cl)cc2C(c2ccccc2)=[N+]([O-])C1 | 0
O=C1C[C@@H]2OCC=C3C[N+]4([O-])CC[C@]56c7ccccc7N1[C@H]5[C@H]2[C@H]3C[C@@H]64 (some centres undefined) | 1.95
C=C1C/C(=C/C)C(=O)O[C@@H]2CCN3CC=C(COC(=O)[C@]1(C)O)[C@H]23 | 0.25
FCCN(CCF)c1cccc(Cl)c1 | 1.1
O=C1/C(=C\c2ccccc2)C2OCC=C3CN4CCC56c7ccccc7N1C5C2C3CC46 (centres undefined) | 0.15
O=P(OC1=CCCCC1)(c1ccccc1)c1ccccc1 | 0.65

Rewritten tab-delimited: 4 of the compounds above
SMILES	T2 sensor activation Q score
CC(=O)OC1CCC2(C)C(CCC3C2CC(=O)C2(C)C3CC(N3CC3)C2C(C)=O)C1 (centres undefined)	0.5
CN1CCc2cc3c(cc2C1)OCO3	-0.3
CC[C@@]1(O)C(=O)OCc2c1cc1n(c2=O)Cc2cc3ccccc3nc2-1	0.65
CCCC(=O)N(C)C1=Nc2ccc(Cl)cc2C(c2ccccc2)=[N+]([O-])C1	0

Next part:

SMILES | T2 sensor activation Q score
C=C1C(=O)O[C@H]2C[C@@]3(C)O[C@@H]3CC/C(C)=C/[C@@H](OC(C)=O)[C@H]12 | 1.35
Nc1nc(N)c2cnnn2n1 | -1.3
O=[N+]([O-])c1cc([As](=O)(O)c2ccc(O)c([N+](=O)[O-])c2)ccc1O | 0
CN1CCN(c2nc(N)cc(=O)[nH]2)CC1 | -0.2
CC(C)(C)c1cc(C=C(C#N)C#N)cc(C(C)(C)C)c1O | 0.85
O=C1N[C@H]2[C@H](O)[C@H](O)[C@@H](O)[C@H](O)[C@@H]2c2cc3c(c(O)c21)OCO3 | 2.6
c1cnc2c(c1)ccc1ncccc12 | 0.75
N#CC12CNCC1CN=N2 (centres undefined) | 1.65
Cc1nc(C)c(C(=O)N/N=C/c2ccc(N(CCCl)CCCl)cc2)s1 | 0.65
O=c1cccc2n1C[C@@H]1CNC[C@H]2C1 | -1
O=c1cccc2n1C[C@H]1C[C@@H]2CN2CCCC[C@@H]12 | -0.85
COC(=O)C1C(O)C(C)C(O)C(C)/C=C\C=C(C)C(=O)Nc2c(C)c(OC(C)=O)c3c(c2O)C(=O)C(C)=C2OCOC(=C23)C(C)=CC(C)(O)C(O)C(C)C1O (centres undefined) | 0.5
NN=C1C(Cl)=C(Cl)C(Cl)=C1Cl | -0.35
CCN(CC)c1ccc(C=C2C(=O)NC(=S)NC2=O)cc1 | 0.35
Cn1c(CCCC(=O)O)nc2cc(N(CCCl)CCCl)ccc21 | -1.3
c1cncc(C2Nc3cccc4cccc(c34)N2)c1 | 1.25
C[C@]12CC[C@@H]3c4ccc(OC(=O)N(CCCl)CCCl)cc4CC[C@H]3[C@@H]1CC[C@@H]2OP(=O)(O)O | -1.5
O=[N+]([O-])c1ccc(-c2ccccc2)c([As](=O)(O)O)c1 | -0.3
C[C@H]1CC[C@@]2(C)[C@@H](CC[C@@H]3[C@@H]2CC[C@]2(C)[C@@H](O)CC[C@@H]32)C1 | 0.8
CCOP(=O)(OCC)/C(C#N)=C/c1ccc(Br)cc1 | 1.45
O=c1cc(-c2nn[nH]n2)[nH]c(=O)[nH]1 | -1.2

From the supplement of paper PMC5407854, “Inhibitor of ppGalNAc-T3-mediated O-glycosylation blocks cancer cell invasiveness and lowers FGF23 levels” (eLife, 2017)
